Most values lie at the floor of the assay. Slopes are relative: functional sequences can read slightly below zero.
The substances below were run on Saccharomyces cerevisiae PS128 hsf1 delta, HSF1(1-493) fusion (assay: growth estimate (transactivation domain function in HSF1 fusion, heat-shock survival) (a.u. (slope of normalised read count over time)); higher = stronger growth at 37°C, i.e. more transactivation activity). Conditions: library: random library.
Protocol: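 Random 60-nt DNA library encoding peptides of up to 20 aa, fused to the C-terminus of yeast HSF1 residues 1-493 (C-terminal TAD deleted) and expressed from the native HSF1 promoter on a CEN plasmid in hsf1-deleted S. cerevisiae PS128. Cells were selected at 37°C on -trp 5-FOA plates for 0, 2, 4, 6 and 8 days and amplicons were sequenced. Growth estimate is the slope of a robust linear fit of total-sum-normalised read counts (normalised to the first time point) over time, using at least 2 replicates. Sequences are classed functional (TAD activity) above a threshold of -0.13, set from stop-codon control sequences.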

Substance | growth estimate
TRRSESSKVALTEHRSRGGN | -0.246
LVSSLELAISDSIRKQRIPA | < -0.25
VRGEGRQVGWALPVYG | < -0.25
VSETRRAGTSPHS | < -0.25
DSSTRGRDRSLSQAVVFAPS | -0.245
GWSFPGAKRTLSGSVKA | < -0.25
VKYFVLNANPNFRKLVVEPS | < -0.25
EFAERRRSTTFGGELLCLRA | < -0.25
GFRTQPIG | < -0.25
HRTSVRCSLRFDRTESGCSA | < -0.25
RTVQERSRASL | < -0.25
HMTWFRRYFLASILF | -0.246
EARQRIETIGPDKAALCVRA | < -0.25
YAQSAGGGLRTVWRSV | < -0.25
HVKRS | < -0.25
GQLG | < -0.25
GHYNSRLGW | < -0.25
FLLLCPSLR | < -0.25
VREMSN | < -0.25
SPSCRAIGSREPKGKL | < -0.25
LTSISEDKKGIPRLASSSAQ | < -0.25
DLPRIMAEIT | < -0.25
VVVETCRVCGTI | < -0.25
LNFLTYKDLQR | < -0.25

Substance | growth estimate
GGPRNAVGRAYCPRYYRLLR | < -0.25
LCIRSFIFDGDVNLHVRTRG | < -0.25
ATASGVSGHVLGLRAMLCSQ | < -0.25
SLNTKVTGLGRLAIG | < -0.25
PLTLSSSRAWGALRAKHATS | < -0.25
MRPCPRGSAADGIGAERRSH | < -0.25
AWARLTSGIF | < -0.25
RTVHTRA | < -0.25
NLFDAHCGVDLKFGIESAAL | < -0.25
GASNSQCQSLKSVVDLEATG | < -0.25
RRREVGRQPLEFCHNLRCRS | < -0.25
KRIFREHLLSWLRPAGG | < -0.25
DTPVLGPRDNRIKDKVVLLS | < -0.25
ALLSECG | < -0.25
GLKAGSKQRSHTPVERGFLM | < -0.25
DILCYIERHLMVRRSAVCW | < -0.25
LKIYLSQEDLRGVAFGSSWF | -0.0317
WLFFGD | 0.108
SEDGLRRDSDGRQWAVYNHN | < -0.25
GQVTL | < -0.25
SWKKL | < -0.25
DAGSQSDSPVPIGGYRPRDT | < -0.25
WTE | < -0.25
RLGRAPNRPVRIIRF | < -0.25

Some of the entries so far, field by field.
GASNSQCQSLKSVVDLEATG
  growth estimate: < -0.25
RRREVGRQPLEFCHNLRCRS
  growth estimate: < -0.25
KRIFREHLLSWLRPAGG
  growth estimate: < -0.25
DTPVLGPRDNRIKDKVVLLS
  growth estimate: < -0.25

(listing goes on)

Substance | growth estimate
LEASPLS | < -0.25
KFEGFAYSRCITFGFKSTG | < -0.25
LGLKGL | < -0.25
RQRCLLQKLCV | -0.246
VGNCLLHKVTSTMPNQTRDH | < -0.25
HGYLGTPEPVARPQRELTPR | < -0.25
AIECEN | < -0.25
IQWNQPLPQEQHCGSLCL | < -0.25
RQS | < -0.25
LLVIPLLGHRKRRYG | < -0.25
DLQVTYLSTNLS | -0.237
KCRFPGSVI | < -0.25
LGVLLEDSIRDLIPC | < -0.25
WYAWVSNKAVQRVFSDCPCT | < -0.25
MQTNGK | < -0.25
KKDGLFISRSAWRNMNRPNP | < -0.25
LPALDLTSKLCYAQFQPPND | < -0.25
GLRGEGLSLRR | < -0.25
LKHRL | < -0.25
SYDRFSGLIIMICHGPASLG | -0.246
DLYMTTTSWSPLELLRTQKV | < -0.25
LHRCR | < -0.25
IRERGVVLLLRTNYSRFGIR | < -0.25
GQEELVVCMCIFRSVAGRVC | < -0.25

Substance | growth estimate
GPEVFGRRLKATSIRRKLSG | < -0.25
PMRRRRTAGPTLVGGCGSLG | < -0.25
GSRSVHAGDMGLLRGACWPR | < -0.25
RIRGEEIVGTSRGCRWDRLL | < -0.25
NVLAYDQG | < -0.25
ASGESLSSVLPTAPSYVRGR | < -0.25
KPLLNLIYCRCAQSDQLV | < -0.25
LCDSSASNGLLCGMIDRSYW | -0.25
SVVGGAARGRMGSES | < -0.25
ILRLRKREQGRSPVGCQKFV | < -0.25
SNRGCQKFRD | -0.197
TQAGHGMCGSPTVVNGQLCI | < -0.25
RIRKGAALILTKRIACLVSA | < -0.25
LSEPVATEGVRYA | < -0.25
RSRGGSRSTGHNSRGRLTAL | < -0.25
ASKRISYKLGYRCTGLIIYA | < -0.25
WLQKSLK | < -0.25
SLLIVEEHVCACSSHRNGMS | < -0.25
LKVALAGLGFAAWIQSDCEH | < -0.25
NVLG | < -0.25
VSDSYIIVM | < -0.25
CDRLHRCEMRRLAIYHTR | -0.122
RTGERTAQCAKV | < -0.25
LASFLGPTACEES | < -0.25

Substance | growth estimate
VSKEQCSAPRECTAKREMFN | < -0.25
CPKPGETRS | < -0.25
GGVQVNS | < -0.25
NLGYNLGIKRIRVAELEYPR | < -0.25
HNVTAA | < -0.25
PRLGRTLFIVSCDEPFFSHL | < -0.25
FPRGRPCTRYFERFDGWTGG | < -0.25
ILIPASLFTPNPAGSGETHC | < -0.25
GLGQKRIEDHFAAFSSCPFM | < -0.25
VLNGGVLKRLRGKRESFGPV | < -0.25
KCCKGQGQLWLGISVRHQVR | < -0.25
GFKYTLTMYAWKAYHIFIVR | < -0.25
NLLASLIQYH | < -0.25
RPAR | < -0.25
ASVVVVERLGPPP | < -0.25
DFTSFKGSVIRVILGQKVRG | < -0.25
SDCVANFRSRK | < -0.25
IKDSLLPTVLT | < -0.25
SYVLVCSGRTEGGRPTPASS | -0.241
TLQRHLRLTSVLSGVSVNFR | < -0.25
DFLWNAVRASGSI | -0.245
ECVLRLWWGALIVKARVAAC | < -0.25
ALGTSASPVHAVF | < -0.25
PVWL | < -0.25

Some of the entries so far, in CSV form.
Substance,growth estimate
NLGYNLGIKRIRVAELEYPR,< -0.25
HNVTAA,< -0.25
PRLGRTLFIVSCDEPFFSHL,< -0.25
FPRGRPCTRYFERFDGWTGG,< -0.25

(further entries)

Substance | growth estimate
RYVRNQPRAKSAQQCFM | < -0.25
SVFGEAVYADMLATGC | < -0.25
CRAPFIIAYFGHTLPRRMNV | < -0.25
TGDLRLEGCC | < -0.25
TGYRLLGSL | < -0.25
WIS | < -0.25
DAGRGWPWQWKALAGLGRNG | < -0.25
LEGG | < -0.25
RRCMPRRN | -0.246
ISEGAPGAVQRRVSNRALYA | < -0.25
CILKKQQRPK | < -0.25
HRFSQLAVMVVRNTGYGQLR | < -0.25
GTLV | < -0.25
TSN | < -0.25
KAVVSRSGNSIFGQYLGPCY | < -0.25
SSIRRGVRQPRLNAKRDNC | < -0.25
RNH | < -0.25
AQLKCNGVRHRSKYPAAIE | < -0.25
VSGAAFLMGTRAYVSRGAWA | < -0.25
EKETVTERVSSNSLRIMCNT | < -0.25
CLDCLGFHMEETGPGTPSQS | < -0.25
LFQWDYDRSLDGHV | < -0.25
RTEGLFRHADARLNGCHCTA | < -0.25
SCEPHQNVYPVNWSPMLNAM | < -0.25

Substance | growth estimate
LVQSTFPY | < -0.25
LGKSQYAYKVWPDAHGT | < -0.25
EGTVLPD | < -0.25
VRLGKSVRFAQR | < -0.25
FFYR | < -0.25
SKICVENIWGISRLIRRHRR | < -0.25
GVAVGAALIKMVHGHGHVCL | < -0.25
GWLVHDALVRLWF | < -0.25
NVMRSLTRSGKVRSSRMAVD | < -0.25
ARSVE | < -0.25
GCTVFRLSSFPVSGRRACRS | < -0.25
TASKIRIVFSGLR | -0.245
SRCKGPENFTGWQLLFLQRV | < -0.25
LGPNPIDEVGVRWP | < -0.25
KNYMTRLAYPARSRA | < -0.25
DIHIMRGGTSPCL | < -0.25
LGASA | < -0.25
RNFIIALFYKLSLPAQRLH | < -0.25
DHTF | < -0.25
FRFRP | < -0.25
CGTCGYSP | < -0.25
GAVLSRITGLRGVVRISGRP | < -0.25
SLIKNEVAVIRRFVVK | < -0.25
RPSVVIKRRDSRVGVLFVYT | -0.243

Substance | growth estimate
PRAQIKSEGGMLRLPG | < -0.25
KPDYGSREESKT | < -0.25
VRKGADFSYSRQAHVAGRVP | < -0.25
TRRAWGALMAMFSSLALAGR | < -0.25
GYTSARGSKRTLMYALDSKD | < -0.25
LVAVTVFPTVG | < -0.25
VGSLCDDPLGGALLKLEAP | < -0.25
AANCRRRSQYQSQCRFYPVN | < -0.25
LYNGGGTPRRRLGNTVLRPI | < -0.25
EGSGLDVCLATAIGRAYWGW | < -0.25
GLSQAEMF | < -0.25
HYVWPGTLH | < -0.25
WVLG | < -0.25
PGREIQNREGGPSFILLRCH | < -0.25
RPAN | -0.246
WGQSPRIAVSQSSEDTHRHG | < -0.25
FLFSMVEA | -0.189
VQGQRGRAGEKYQSRLETWL | < -0.25
LVAKLIPDIIGTPSQNYAIL | < -0.25
EGASCT | < -0.25
GRVVVRGKIRFTR | 0.181
LSGGASVDSQSHRRSMAFRA | < -0.25

From the supplement of paper PMC5949888
